Test results published in paper PMC8935817.
These are yes or no findings as the source states them, for the method shown. Binding seen in cells or lysates may run through a third protein. Here binding means that the protein was enriched with, or labelled near, the bait; the list need not be complete. Where a sequence is shown, tags or fusion partners need not be part of it.

Chains of the proteins cited; added tags and fusions are not shown. Residues count along the entry.
UniProt Q03265, residues 44-553: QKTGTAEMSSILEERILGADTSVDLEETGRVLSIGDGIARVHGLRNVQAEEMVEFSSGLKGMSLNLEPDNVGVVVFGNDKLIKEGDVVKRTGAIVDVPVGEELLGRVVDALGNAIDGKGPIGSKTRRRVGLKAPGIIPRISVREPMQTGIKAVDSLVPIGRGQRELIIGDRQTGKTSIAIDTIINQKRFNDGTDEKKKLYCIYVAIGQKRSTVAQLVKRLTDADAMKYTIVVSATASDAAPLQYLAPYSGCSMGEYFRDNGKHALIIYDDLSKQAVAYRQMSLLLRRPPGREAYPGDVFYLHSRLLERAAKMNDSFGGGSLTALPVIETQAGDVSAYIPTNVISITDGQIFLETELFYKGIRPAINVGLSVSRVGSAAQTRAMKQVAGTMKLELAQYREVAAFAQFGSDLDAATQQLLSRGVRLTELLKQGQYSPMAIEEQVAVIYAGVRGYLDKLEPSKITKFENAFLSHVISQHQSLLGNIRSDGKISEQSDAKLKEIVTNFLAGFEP
UniProt P63038, residues 27-573: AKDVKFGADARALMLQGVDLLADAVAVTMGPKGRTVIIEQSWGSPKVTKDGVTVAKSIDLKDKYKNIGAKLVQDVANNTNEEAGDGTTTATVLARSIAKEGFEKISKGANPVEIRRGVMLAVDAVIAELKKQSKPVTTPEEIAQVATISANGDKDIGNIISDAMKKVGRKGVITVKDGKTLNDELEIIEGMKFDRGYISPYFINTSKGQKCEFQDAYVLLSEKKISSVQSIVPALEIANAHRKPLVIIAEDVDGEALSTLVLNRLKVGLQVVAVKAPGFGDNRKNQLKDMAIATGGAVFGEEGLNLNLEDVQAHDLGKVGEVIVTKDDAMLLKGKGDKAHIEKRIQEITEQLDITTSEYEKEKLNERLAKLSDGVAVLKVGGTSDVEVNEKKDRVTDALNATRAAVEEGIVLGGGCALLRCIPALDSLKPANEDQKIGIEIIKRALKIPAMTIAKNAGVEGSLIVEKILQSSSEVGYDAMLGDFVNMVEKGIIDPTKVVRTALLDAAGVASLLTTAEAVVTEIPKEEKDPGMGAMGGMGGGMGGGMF
UniProt Q62446: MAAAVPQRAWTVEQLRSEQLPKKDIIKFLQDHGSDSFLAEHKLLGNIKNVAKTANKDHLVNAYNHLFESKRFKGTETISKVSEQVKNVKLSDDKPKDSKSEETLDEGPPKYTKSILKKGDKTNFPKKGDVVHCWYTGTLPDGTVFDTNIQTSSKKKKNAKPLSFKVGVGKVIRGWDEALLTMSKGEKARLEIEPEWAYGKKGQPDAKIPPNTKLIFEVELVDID
UniProt P02089: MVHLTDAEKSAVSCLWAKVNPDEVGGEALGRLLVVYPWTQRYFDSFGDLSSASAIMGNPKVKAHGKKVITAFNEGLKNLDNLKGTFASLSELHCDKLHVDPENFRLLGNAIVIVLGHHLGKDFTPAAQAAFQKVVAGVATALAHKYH
UniProt P56480, residues 47-529: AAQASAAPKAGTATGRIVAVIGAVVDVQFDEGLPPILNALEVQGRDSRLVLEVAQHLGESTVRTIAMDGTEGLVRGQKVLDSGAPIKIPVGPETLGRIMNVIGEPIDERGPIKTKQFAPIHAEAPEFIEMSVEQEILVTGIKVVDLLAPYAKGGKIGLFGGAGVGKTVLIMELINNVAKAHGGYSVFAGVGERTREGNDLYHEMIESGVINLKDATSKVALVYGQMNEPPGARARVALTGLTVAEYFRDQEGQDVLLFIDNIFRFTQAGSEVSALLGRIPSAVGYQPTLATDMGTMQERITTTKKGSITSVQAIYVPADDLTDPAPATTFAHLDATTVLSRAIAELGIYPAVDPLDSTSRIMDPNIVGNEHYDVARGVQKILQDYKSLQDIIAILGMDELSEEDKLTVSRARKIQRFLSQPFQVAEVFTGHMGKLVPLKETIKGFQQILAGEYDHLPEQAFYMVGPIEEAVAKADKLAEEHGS
UniProt Q8BMS1, residues 37-763: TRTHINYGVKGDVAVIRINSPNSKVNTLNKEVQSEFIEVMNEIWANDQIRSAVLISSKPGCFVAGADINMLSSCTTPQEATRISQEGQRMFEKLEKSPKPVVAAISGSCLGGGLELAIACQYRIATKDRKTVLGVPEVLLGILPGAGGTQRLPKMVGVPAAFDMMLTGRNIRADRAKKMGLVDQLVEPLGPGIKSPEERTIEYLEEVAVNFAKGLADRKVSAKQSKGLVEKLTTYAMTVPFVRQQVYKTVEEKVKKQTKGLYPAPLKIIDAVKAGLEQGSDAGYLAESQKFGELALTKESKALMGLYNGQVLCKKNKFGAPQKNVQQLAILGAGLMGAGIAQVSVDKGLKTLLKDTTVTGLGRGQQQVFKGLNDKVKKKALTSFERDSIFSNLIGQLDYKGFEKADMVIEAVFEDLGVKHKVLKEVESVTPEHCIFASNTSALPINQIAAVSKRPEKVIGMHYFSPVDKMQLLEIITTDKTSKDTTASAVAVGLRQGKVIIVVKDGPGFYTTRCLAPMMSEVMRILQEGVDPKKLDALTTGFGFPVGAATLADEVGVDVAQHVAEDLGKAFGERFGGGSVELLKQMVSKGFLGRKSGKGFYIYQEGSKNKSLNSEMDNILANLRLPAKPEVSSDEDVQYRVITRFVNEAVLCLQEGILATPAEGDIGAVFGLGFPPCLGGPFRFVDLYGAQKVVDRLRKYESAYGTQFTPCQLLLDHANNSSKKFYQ
UniProt P20029, residues 20-655: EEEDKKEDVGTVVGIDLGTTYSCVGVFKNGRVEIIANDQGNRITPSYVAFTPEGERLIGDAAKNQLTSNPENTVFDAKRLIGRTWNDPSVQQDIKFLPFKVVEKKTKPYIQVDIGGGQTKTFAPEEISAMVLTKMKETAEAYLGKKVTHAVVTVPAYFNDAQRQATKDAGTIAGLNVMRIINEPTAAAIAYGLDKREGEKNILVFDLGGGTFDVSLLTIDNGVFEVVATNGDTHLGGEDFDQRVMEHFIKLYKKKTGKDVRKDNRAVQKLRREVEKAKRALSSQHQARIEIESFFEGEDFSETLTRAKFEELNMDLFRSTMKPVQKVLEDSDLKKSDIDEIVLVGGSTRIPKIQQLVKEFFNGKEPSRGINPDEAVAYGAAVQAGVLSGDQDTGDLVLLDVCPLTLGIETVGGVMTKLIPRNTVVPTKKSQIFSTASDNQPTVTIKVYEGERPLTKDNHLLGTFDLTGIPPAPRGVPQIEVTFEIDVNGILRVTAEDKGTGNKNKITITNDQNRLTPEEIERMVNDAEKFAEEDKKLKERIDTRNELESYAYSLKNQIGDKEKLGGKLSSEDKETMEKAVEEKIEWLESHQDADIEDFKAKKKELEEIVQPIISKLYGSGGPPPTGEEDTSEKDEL
UniProt P02088: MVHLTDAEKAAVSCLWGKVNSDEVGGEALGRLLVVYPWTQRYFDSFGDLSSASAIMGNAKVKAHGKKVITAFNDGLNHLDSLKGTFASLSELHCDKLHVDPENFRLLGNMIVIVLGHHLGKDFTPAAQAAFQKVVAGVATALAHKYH
UniProt P62631: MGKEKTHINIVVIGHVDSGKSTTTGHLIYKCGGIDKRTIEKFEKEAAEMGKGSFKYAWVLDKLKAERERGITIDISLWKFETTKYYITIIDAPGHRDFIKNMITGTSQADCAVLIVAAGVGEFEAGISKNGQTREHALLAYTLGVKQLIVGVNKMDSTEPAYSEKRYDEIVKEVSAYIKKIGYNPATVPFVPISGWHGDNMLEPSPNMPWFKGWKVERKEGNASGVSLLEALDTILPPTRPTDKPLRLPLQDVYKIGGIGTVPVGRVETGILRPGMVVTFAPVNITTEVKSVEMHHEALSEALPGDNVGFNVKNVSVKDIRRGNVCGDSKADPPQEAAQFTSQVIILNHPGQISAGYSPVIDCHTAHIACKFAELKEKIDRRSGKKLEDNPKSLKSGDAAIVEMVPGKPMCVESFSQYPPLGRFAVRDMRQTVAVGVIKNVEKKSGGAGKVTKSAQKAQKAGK
UniProt P24369, residues 34-216: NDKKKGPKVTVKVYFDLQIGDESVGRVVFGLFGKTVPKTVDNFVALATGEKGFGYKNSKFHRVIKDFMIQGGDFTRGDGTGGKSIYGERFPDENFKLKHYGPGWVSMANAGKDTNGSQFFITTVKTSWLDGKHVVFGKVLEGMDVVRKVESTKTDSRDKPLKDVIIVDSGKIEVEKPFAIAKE
UniProt P38647, residues 47-679: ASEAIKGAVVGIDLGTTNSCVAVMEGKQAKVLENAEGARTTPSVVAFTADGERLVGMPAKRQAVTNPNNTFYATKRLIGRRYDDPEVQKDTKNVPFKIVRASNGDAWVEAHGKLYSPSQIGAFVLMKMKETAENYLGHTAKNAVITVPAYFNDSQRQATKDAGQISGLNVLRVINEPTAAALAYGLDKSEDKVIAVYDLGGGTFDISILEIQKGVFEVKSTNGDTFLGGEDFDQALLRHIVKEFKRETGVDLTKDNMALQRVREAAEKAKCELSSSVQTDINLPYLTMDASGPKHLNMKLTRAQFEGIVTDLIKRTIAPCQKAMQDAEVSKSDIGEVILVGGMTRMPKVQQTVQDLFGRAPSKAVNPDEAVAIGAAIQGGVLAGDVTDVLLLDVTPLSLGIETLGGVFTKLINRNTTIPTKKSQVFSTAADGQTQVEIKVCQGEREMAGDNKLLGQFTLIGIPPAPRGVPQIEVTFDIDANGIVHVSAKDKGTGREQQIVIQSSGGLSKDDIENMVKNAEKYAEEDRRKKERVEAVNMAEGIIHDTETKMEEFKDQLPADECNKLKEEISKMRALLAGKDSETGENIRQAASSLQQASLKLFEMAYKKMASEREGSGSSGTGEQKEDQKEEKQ
UniProt P62897: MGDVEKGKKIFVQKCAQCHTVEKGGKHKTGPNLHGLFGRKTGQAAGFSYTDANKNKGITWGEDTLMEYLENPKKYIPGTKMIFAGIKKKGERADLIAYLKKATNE
UniProt P01942: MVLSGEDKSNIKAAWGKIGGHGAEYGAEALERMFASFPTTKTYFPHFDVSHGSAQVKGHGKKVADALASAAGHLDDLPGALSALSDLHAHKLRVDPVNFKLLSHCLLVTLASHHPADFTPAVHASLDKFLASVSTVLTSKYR

T1: GATD3A:FLAG (glutamine amidotransferase-like class 1 domain-containing protein 3A, mouse, FLAG knock-in) (mouse) (UniProt Q9D172)
T1 sequence: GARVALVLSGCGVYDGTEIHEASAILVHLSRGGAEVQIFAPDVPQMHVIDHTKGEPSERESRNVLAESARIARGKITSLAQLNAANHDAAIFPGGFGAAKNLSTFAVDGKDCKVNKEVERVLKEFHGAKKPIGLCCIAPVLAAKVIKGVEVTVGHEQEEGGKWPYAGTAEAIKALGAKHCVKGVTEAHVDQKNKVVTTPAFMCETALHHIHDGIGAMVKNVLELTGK

B1: ADP/ATP translocase 1 (protein, UniProt P48962 1-298)
chain: MGDQALSFLKDFLAGGIAAAVSKTAVAPIERVKLLLQVQHASKQISAEKQYKGIIDCVVRIPKEQGFLSFWRGNLANVIRYFPTQALNFAFKDKYKQIFLGGVDRHKQFWRYFAGNLASGGAAGATSLCFVYPLDFARTRLAADVGKGSSQREFNGLGDCLTKIFKSDGLKGLYQGFSVSVQGIIIYRAAYFGVYDTAKGMLPDPKNVHIIVSWMIAQSVTAVAGLVSYPFDTVRRRMMMQSGRKGADIMYTGTLDCWRKIAKDEGANAFFKGAWSNVLRGMGGAFVLVLYDEIKKYV
B2: Aconitate hydratase, mitochondrial (protein, UniProt Q99KI0 28-780)
chain: QRAKVAMSHFEPSEYIRYDLLEKNINIVRKRLNRPLTLSEKIVYGHLDDPANQEIERGKTYLRLRPDRVAMQDATAQMAMLQFISSGLPKVAVPSTIHCDHLIEAQVGGEKDLRRAKDINQEVYNFLATAGAKYGVGFWRPGSGIIHQIILENYAYPGVLLIGTDSHTPNGGGLGGICIGVGGADAVDVMAGIPWELKCPKVIGVKLTGSLSGWTSPKDVILKVAGILTVKGGTGAIVEYHGPGVDSISCTGMATICNMGAEIGATTSVFPYNHRMKKYLSKTGRTDIANLAEEFKDHLVPDPGCQYDQVIEINLNELKPHINGPFTPDLAHPVADVGTVAEKEGWPLDIRVGLIGSCTNSSYEDMGRSAAVAKQALAHGLKCKSQFTITPGSEQIRATIERDGYAQILRDVGGIVLANACGPCIGQWDRKDIKKGEKNTIVTSYNRNFTGRNDANPETHAFVTSPEIVTALAIAGTLKFNPETDFLTGKDGKKFKLEAPDADELPRSDFDPGQDTYQHPPKDSSGQRVDVSPTSQRLQLLEPFDKWDGKDLEDLQILIKVKGKCTTDHISAAGPWLKFRGHLDNISNNLLIGAINIENGKANSVRNAVTQEFGPVPDTARYYKKHGIRWVVIGDENYGEGSSREHAALEPRHLGGRAIITKSFARIHETNLKKQGLLPLTFADPSDYNKIHPVDKLTIQGLKDFAPGKPLKCVIKHPNGTQETILLNHTFNETQIEWFRAGSALNRMKELQQ
B3: Mitochondrial 10-formyltetrahydrofolate dehydrogenase (protein, UniProt Q8K009 1-923)
chain: MLWRGSQALRHFSTSRVYFKNKLKLALIGQSLFGQEVYSQLLKEGHRVVGVFTVPDKDGKADPLALAAEKDGTPVFKFPRWRLKGKTIKEVAEAYQSVGAELNVLPFCTQFIPMDVIDSPKHGSIIYHPSLLPRHRGASAINWTLIMGDKKAGFSVFWADDGLDTGPILLQRSCDVKPNDTVDSLYNRFLFPEGIKAMVEAVQLIADGKAPRTPQPEEGATYEGIQKKENAEVSWDQPAEGLHNWIRGHDKVPGAWAEINGQMVTFYGSSLLTSSVPSGEPLDIRGAKKPGLVTKNGLVLFGNDGKALMVRNLQFEDGKMIPASQYFSAGETSVVELTAEELKVAETIKVIWARILSNTPVIEDSTDFFKSGASSMDVVRLVEEIRQSCGGLQLQNEDVYMATKFGDFIQKVVRRLRGEDEEAEMVVDYVSKEVNGMTVKIPYQCFINGQFVDAEDGETYATVNPTDGTTICRVSYASLADVDRAVAAAKDAFENGEWGRMNARDRGRLMYRLADLMEENQEELATIEALDSGAVYTLALKTHIGMSVQTFRYFAGWCDKIQGSTIPINQARPNYNLTFTKKEPLGACAIIIPWNYPLMMLAWKSAACLAAGNTLVLKPAQVTPLTALKFAELTVKAGFPKGVINIIPGSGGVAGQRLSQHPDIRKLGFTGSTSVGKQIMKSCAVSNLKKVSLELGGKSPLIIFSDCDLEKAVRMGMGAVFFNKGENCIAAGRLFVEEAIHDEFVTRVVEEIKKMKIGDPLDRSTDHGPQNHRAHLEKLLQYCETGVQEGATLVYGGRQVQRPGFFMEPTVFTGVEDHMYLAKEESFGPIMVISKFQNGDIDGVLQRANNTEYGLASGVFTRDINKAMYVSDKLEAGTVFINTYNKTDVAAPFGGMKQSGFGKDLGEEALNEYLKIKTVTLEY
B4: Trifunctional enzyme subunit beta, mitochondrial (protein, UniProt Q99JY0 35-475)
chain: SAPAVQTKSKKTLAKPNMKNIVVVEGVRIPFLLSGTSYKDLMPHDLARAALSGLLHRTNIPKDVVDYIIFGTVIQEVKTSNVAREAALGAGFSDKTPAHTVTMACISSNQAMTTAVGLIASGQCDVVVAGGVELMSDVPIRHSRNMRKMMLDLNKAKTLGQRLSLLSKFRLNFLSPELPAVAEFSTNETMGHSADRLAAAFAVSRMEQDEYALRSHSLAKKAQDEGHLSDIVPFKVPGKDTVTKDNGIRPSSLEQMAKLKPAFIKPYGTVTAANSSFLTDGASAMLIMSEDRALAMGYKPKAYLRDFIYVSQDPKDQLLLGPTYATPKVLEKAGLTMNDIDAFEFHEAFSGQILANFKAMDSDWFAQNYMGRKTKVGSPPLEKFNIWGGSLSLGHPFGATGCRLVMAAANRLRKDGGQYALVAACAAGGQGHAMIVEAYPK
B5: ADP/ATP Translocase 2 (protein, UniProt P51881 1-298)
chain: MTDAAVSFAKDFLAGGVAAAISKTAVAPIERVKLLLQVQHASKQITADKQYKGIIDCVVRIPKEQGVLSFWRGNLANVIRYFPTQALNFAFKDKYKQIFLGGVDKRTQFWRYFAGNLASGGAAGATSLCFVYPLDFARTRLAADVGKAGAEREFKGLGDCLVKIYKSDGIKGLYQGFNVSVQGIIIYRAAYFGIYDTAKGMLPDPKNTHIFISWMIAQSVTAVAGLTSYPFDTVRRRMMMQSGRKGTDIMYTGTLDCWRKIARDEGSKAFFKGAWSNVLRGMGGAFVLVLYDEIKKYT
B6: Long-chain-specific acyl-CoA dehydrogenase, mitochondrial (protein, UniProt P51174 31-430)
chain: GAEARLETPSAKKLTDVGIRRIFSSEHDIFRESVRKFFQEEVIPHHTEWEKAGEVSREVWEKAGKQGLLGINIAEKHGGIGGDLLSTAVTWEEQAYSNCTGPGFSLHSDIVMPYIANYGTKEQIEKFIPQMTAGKCIGAIAMTEPGAGSDLQGVRTNAKRSGSDWILNGSKVFITNGWLSDLVIVVAVTNREARSPAHGISLFLVENGMKGFIKGRKLHKMGMKAQDTAELFFEDVRLPANALLGEENKGFYYLMQELPQERLLIAELAISACEFMFEETRNYVKQRKAFGKTVAHIQTVQHKLAELKTHICVTRAFVDSCLQLHETKRLDSGSASMAKYWASELQNSVAYECVQLHGGWGYMWEYPIAKAYVDARVQPIYGGTNEIMKELIARQIVSDS
B7: Propionyl-CoA carboxylase alpha chain, mitochondrial (protein, UniProt Q91ZA3 49-724)
chain: SVEYEPKEKTFDKILIANRGEIACRVIKTCKKMGIKTVAIHSDVDASSVHVKMADEAVCVGPAPTSKSYLNMDAIMEAIKKTRAQAVHPGYGFLSENKEFAKRLAAEDVTFIGPDTHAIQAMGDKIESKLLAKRAKVNTIPGFDGVVKDADEAVRIAREIGYPVMIKASAGGGGKGMRIAWDDEETRDGFRFSSQEAASSFGDDRLLIEKFIDNPRHIEIQVLGDKHGNALWLNERECSIQRRNQKVVEEAPSIFLDPETRQAMGEQAVALAKAVKYSSAGTVEFLVDSQKNFYFLEMNTRLQVEHPVTECITGLDLVQEMILVAKGYPLRHKQEDIPISGWAVECRVYAEDPYKSFGLPSIGRLSQYQEPIHLPGVRVDSGIQPGSDISIYYDPMISKLVTYGSDRAEALKRMEDALDNYVIRGVTHNIPLLREVIINTRFVKGDISTKFLSDVYPDGFKGHTLTLSERNQLLAIASSVFVASQLRAQRFQEHSRVPVIRPDVAKWELSVKLHDEDHTVVASNNGPAFTVEVDGSKLNVTSTWNLASPLLSVNVDGTQRTVQCLSREAGGNMSIQFLGTVYKVHILTKLAAELNKFMLEKVPKDTSSTLCSPMPGVVVAVSVKPGDMVAEGQEICVIEAMKMQNSMTAGKMGKVKLVHCKAGDTVGEGDLLVELE
B8: Malate dehydrogenase, mitochondrial (protein, UniProt P08249 25-338)
chain: AKVAVLGASGGIGQPLSLLLKNSPLVSRLTLYDIAHTPGVAADLSHIETRANVKGYLGPEQLPDCLKGCDVVVIPAGVPRKPGMTRDDLFNTNATIVATLTAACAQHCPEAMVCIIANPVNSTIPITAEVFKKHGVYNPNKIFGVTTLDIVRANTFVAELKGLDPARVNVPVIGGHAGKTIIPLISQCTPKVDFPQDQLATLTGRIQEAGTEVVKAKAGAGSATLSMAYAGARFVFSLVDAMNGKEGVVECSFVQSKETECTYFSTPLLLGKKGLEKNLGIGKITPFEEKMIAEAIPELKASIKKGEDFVKNMK

Target: T1, GATD3A:FLAG (glutamine amidotransferase-like class 1 domain-containing protein 3A, mouse, FLAG knock-in) (mouse)
Assay: affinity purification with mass spectrometry; magnetic anti-FLAG beads with lysate of Gatd3a^FLAG/FLAG mouse heart mitochondria (20 mM HEPES pH 7.4, 100 mM NaCl, 10% glycerol, 1 mM DTT, 2% digitonin, 2.5% NP-40), overnight at 4 °C; eluted with 0.2 mg/ml FLAG peptide; LC-MS/MS; performed three times

binding	Molecule
binds	ATP synthase subunit alpha, mitochondrial (from UniProt Q03265 44-553)
binds	60 kDa heat shock protein, mitochondrial (from UniProt P63038 27-573)
binds	Peptidyl-prolyl cis-trans isomerase FKBP3 (from UniProt Q62446 1-224)
binds	Hemoglobin subunit beta-2 (from UniProt P02089 1-147)
binds	ATP synthase subunit beta, mitochondrial (from UniProt P56480 47-529)
binds	Trifunctional enzyme subunit alpha, mitochondrial (from UniProt Q8BMS1 37-763)
binds	Endoplasmic reticulum chaperone BiP (from UniProt P20029 20-655)
binds	SLIRP (mouse (endogenous in heart))
binds	Hemoglobin subunit beta-1 (from UniProt P02088 1-147)
binds	Elongation factor 1-alpha 2 (from UniProt P62631 1-463)
binds	Peptidyl-prolyl cis-trans isomerase B (from UniProt P24369 34-216)
binds	Stress-70 protein, mitochondrial (from UniProt P38647 47-679)
binds	Cytochrome c, somatic (from UniProt P62897 1-105)
binds	Transitional endoplasmic reticulum ATPase (from UniProt Q01853 1-806)
binds	Hemoglobin subunit alpha (from UniProt P01942 1-142)
binds	B1
binds	B2
binds	B3
binds	B4
binds	B5
binds	B6
binds	B7
binds	B8
